Measurements published in patent US20230151342A1, “ZINC FINGER DEGRADATION DOMAINS” (THE BROAD INSTITUTE, INC, priority 2020, published 2023).
Results are given in words; binding and its absence hold for the method and conditions named. Some entries that bind do so weakly or less than the wild type.

Amino acid sequences for entries named in this document (tags omitted). A change or cut given only in a name is not applied to a line headed by its entry. Chains listed by the source or under a name are the forms on record and can include a tag or linker. Residues count along the entry.
CRBNΔ3 (Q96SW2, form named): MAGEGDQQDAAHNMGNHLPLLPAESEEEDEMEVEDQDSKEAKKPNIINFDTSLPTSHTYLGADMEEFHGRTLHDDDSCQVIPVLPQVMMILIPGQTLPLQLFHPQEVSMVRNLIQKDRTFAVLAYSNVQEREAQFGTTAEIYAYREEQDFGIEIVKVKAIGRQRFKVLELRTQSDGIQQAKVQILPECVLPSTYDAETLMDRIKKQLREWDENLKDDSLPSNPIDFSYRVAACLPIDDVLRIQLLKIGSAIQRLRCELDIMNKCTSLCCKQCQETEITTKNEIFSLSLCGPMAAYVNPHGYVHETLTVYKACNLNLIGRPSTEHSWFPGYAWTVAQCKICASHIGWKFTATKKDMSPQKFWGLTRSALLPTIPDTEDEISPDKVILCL
UniProt Q9UKT9, residues 130-189: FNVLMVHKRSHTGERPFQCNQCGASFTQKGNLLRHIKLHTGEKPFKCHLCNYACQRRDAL

Molecular target: CRBNΔ3 (UniProt Q96SW2)
Test: NanoBRET between Nanoluc- and HaloTag-bearing proteins in 293T cells, with MG132 and lenalidomide (FIG. 16); binding depends on lenalidomide

**Q.** With “dIKZF3 (zinc finger degron from IKZF3) (from UniProt Q9UKT9 130-189)” as the substance, how does the binding read?
**A.** Its binding is “binds”.
